From paper PMC12040169 (PLOS Biology, 2025)
Read-outs that look alike come from different tables or passages of the source. The list shows a part of the results.

Test system: T1, CTL2-GFP (C. trachomatis L2/434/Bu, GFP-expressing)
T1 construct: L2/434/Bu, GFP-expressing
Design: species or system HeLa; Intracellular C. trachomatis growth in HeLa cells, bulk GFP fluorescence relative to DMSO
Details: bulk GFP, single well, 28.5 h, 10 µM, inhibitor

| SMILES | % of control remaining [%] | % of control remaining (Bulk GFP fluorescence) [%] |
| --- | --- | --- |
| CCC(=O)N1CCC(NCc2ccc(OCC(N)=O)cc2)C(C)C1 (stereo not shown) [CBK303989] | 164.994 | – |
| Nc1ccc(-c2ccc3c(c2)OCCCO3)c2ccccc12 [CBK084325] | 96.4018 | – |
| CC(C)(C)OC(=O)N1CCN(c2nccnc2OCCO)CC1 [CBK001869] | 90.3654 | – |
| O=C(C1CCCCC1)N1CC[C@H](c2nnc(-c3cccnc3)o2)C1 [CBK289412] | 104.383 | – |
| CCCCN1CCN(S(=O)(=O)c2ccc(Br)cc2)CC1 [CBK144055] | 110.392 | – |
| O=C(c1cncnc1)N1CCC(Cc2ccccc2)CC1 [CBK200212] | 122.278 | – |
| CC(C)C(=O)N1CCCC2(CC1)CN(C)Cc1ccccc1O2 (stereo not shown) [CBK285132] | 118.319 | – |
| Cc1ccc(-c2nccnc2OCc2ccco2)cc1C [CBK106863] | 249.952 | – |
| O=C(CSc1nc2sc3c(c2c(=O)n1CCc1ccccc1)CCCC3)Nc1ccccc1 [CBK267281] | 100.729 | – |
| O=C(O)c1n[nH]c2c1COc1ccccc1-2 [CBK266356] | 108.977 | – |
| c1ccc(CN2CCC(NCc3ccco3)C(c3ccccc3)C2)cc1 (stereo not shown) [CBK286167] | 114.847 | – |
| CCOc1ccc(S(=O)(=O)N2CCN(S(=O)(=O)c3cccc([N+](=O)[O-])c3)CC2)cc1 [CBK266341] | 145.316 | – |
| CCc1nc2c(OCCOc3ccccc3)cccn2c1N(C)C(=O)COc1ccccc1 [CBK147355] | 118.842 | – |
| COc1ccc2c(C)nc(NC3=NC(c4ccccc4)CC(=O)N3)nc2c1 (stereo not shown) [CBK270230] | 167.138 | – |
| CC(C)c1ccc2oc(-c3ccc(NC(=S)NC(=O)c4cncc(Br)c4)cc3)nc2c1 [CBK264913] | 137.352 | – |
| CCOC(=O)c1cc(NC(=O)CSc2nc3ccccc3[nH]2)ccc1Cl [CBK266557] | 145.041 | – |
| COC(=O)c1ccc(-c2cc3ccccc3o2)nc1 [CBK149228T] | – | 129.117 |
| O=[N+]([O-])c1ccc(OC(CNS(=O)(=O)c2ccc(Cl)cc2)c2ccccc2)cc1 (stereo not shown) [CBK262817] | 79.924 | – |
| COc1ccccc1C(=O)O/N=C1/CCCc2c1ccc(OC)c2[N+](=O)[O-] [CBK263555] | 63.5967 | – |
| CCOc1cc2c(cc1NC(=O)CN(c1cccc(Cl)c1)S(C)(=O)=O)OC(C)C2 (stereo not shown) [CBK248179] | 147.183 | – |
| CC(Oc1ccccc1F)C(=O)N1CCCCC1CN(C)C (stereo not shown) [CBK281544] | 137.853 | – |
| COCC1(C(=O)N2CC(=O)N(c3ccccc3C#N)CC2C)CCC1 (stereo not shown) [CBK307159] | 134.703 | – |
| O=C(N[C@@H]1CNCCC[C@H]1O)c1ccc(OCCN2CCOCC2)cc1 [CBK289065] | 121.292 | – |
| CC(=O)NC1CCN(c2nc(C(C)(C)C)nc3c2cnn3C)CC1 [CBK307431] | 119.815 | – |
| CC1=CC(C)C2C(=O)N(c3ccc(C(=O)O)cc3)C(=O)C2C1 (stereo not shown) [CBK286923] | 119.333 | – |
| CC(=O)Nc1ccc(CNc2ncccc2OC(F)F)cc1 [CBK306016] | 127.5 | – |
| C#C[C@H]1C[N@@]2CC[C@H]1C[C@@H]2CNC(=O)Nc1ccc(C(C)=O)cc1 [CBK288755] | 115.16 | – |

| SMILES | % of control remaining [%] | % of control remaining (Bulk GFP fluorescence) [%] |
| --- | --- | --- |
| O=c1[nH]ccn1CCNc1ccc(-c2ccccc2Oc2ccccc2)cn1 [CBK037665] | 87.9916 | – |
| CC(=O)N1CCC2(CC1)CC(O)c1cc(C)c(C)cc1O2 (stereo not shown) [CBK282826] | 96.0905 | – |
| CSc1cc(C)c(O)c(CO)c1 [CBK020687] | 128.727 | – |
| COc1ccc(-c2nnc(SCC(=O)O)n2-c2cccc(C(F)(F)F)c2)cc1OC [CBK268347] | 142.778 | – |
| Cc1ccc(NC(=O)c2ccncc2)c(Br)c1 [CBK058282] | 133.495 | – |
| CN(C)c1ncc(-c2ccc(O)cc2)cc1C(=O)NCc1ccc(F)cc1 [CBK106396] | 100 | – |
| CCOc1ccccc1Nc1c([N+](=O)[O-])nn(-c2ccc(OC)cc2)[n+]1[O-] [CBK268411] | 123.449 | – |
| CC(C(=O)N(CCC#N)Cc1cccnc1)n1cnc2ccccc21 (stereo not shown) [CBK304127] | 114.124 | – |
| COc1cc(S(=O)(=O)N2CCC(C(N)=O)CC2)ccc1Br [CBK268766] | 147.041 | – |
| Fc1cccc(-c2c[nH]nc2C2CCOCC2)c1 [CBK283465] | 104.206 | – |
| Cc1cc(C)c(OCCNC(=O)c2ccccc2Sc2ccccc2C#N)c(C)c1 [CBK266048] | 88.8791 | – |
| Cc1nc(-c2ccccc2)sc1C(=O)C1=C(O)C(=O)N(CCCN2CCOCC2)C1c1cccs1 (stereo not shown) [CBK266601] | 79.6304 | – |
| CCOC(=O)c1cnc2ccc(F)cc2c1NCCN(C)C [CBK265751] | 138.65 | – |
| CSc1nc(C)cc(OCC(=O)Nc2ccc(Cl)cc2)n1 [CBK267525] | 163.488 | – |
| CC1(c2ccco2)NC(=O)N(Cc2ncc(-c3cccs3)o2)C1=O (stereo not shown) [CBK305398] | 143.605 | – |
| CNC(=O)NC(=O)C1CCN(CCc2cccs2)CC1 [CBK034960] | 137.471 | – |
| COc1ccc(CC(=O)Nc2ccc(S(=O)(=O)NC(C)C)cc2)cc1 [CBK267833] | 90.7478 | – |
| COc1cccc(C(=O)Nc2cc3c(cc2C(O)c2ccccc2Cl)OCCO3)c1 (stereo not shown) [CBK268004] | 116.886 | – |
| Cc1cc2nc(COC(=O)N3CCOCC3)[nH]c2cc1C [CBK200144] | 72.3354 | – |
| CC(=O)N1CCC(C(=O)N2CCC(C(=O)NC(c3ccccn3)c3cccs3)CC2)CC1 (stereo not shown) [CBK060118] | 109.408 | – |
| CC(C)NC(=O)[C@H]1CN2CCC1C[C@@H]2Cn1cc(C2(O)CCCCC2)nn1 (stereo partly shown) [CBK288732] | 132.895 | – |
| O=C(O)c1cc2ncc(-c3n[nH]cc3[N+](=O)[O-])cn2n1 [CBK269072] | 137.852 | – |
| O=C1CN(C(=O)NCc2ccc(Cl)cc2)CCN1 [CBK155867] | 139.513 | – |
| O=C(Nc1cnc2ccccc2c1)OCCc1cccnc1 [CBK200126] | 68.015 | – |
| O=C(Nc1ccccn1)C1CCCN1c1nc(O)cc(C(F)(F)F)n1 (stereo not shown) [CBK004254] | 122.882 | – |
| NC(=O)c1c(NC(=O)COc2ccc(Cl)cc2)sc2c1CCC2 [CBK262163] | 102.92 | – |
| O=C(NCc1ccccn1)c1cnn(-c2ccc(Cl)cc2)c1C(F)(F)F [CBK116637T] | 90.605 | – |

| SMILES | % of control remaining [%] | % of control remaining (Bulk GFP fluorescence) [%] |
| --- | --- | --- |
| COCCNc1nc(-c2ccccc2CO)ccc1C(=O)NCCNC(C)=O [CBK076548] | 108.598 | – |
| O=C(Cc1c[nH]c(=O)[nH]c1=O)N1CCCCC1c1nc2cc(F)ccc2[nH]1 (stereo not shown) [CBK291108] | 141.341 | – |
| FC(F)(F)c1nc2ccccc2nc1OCCN1CCNCC1 [CBK113302] | 98.9194 | – |
| COc1ccc(-c2ccc(CN(Cc3ccc4c(c3)OCO4)CC(C)O)cc2)cc1 (stereo not shown) [CBK286470] | 92.3062 | – |
| CN(C)c1ccc(NC(=O)CN2C(=O)[C@H]3CCCN3c3ncccc32)cc1 [CBK286202] | 144.31 | – |
| COc1ccc(S(=O)(=O)N(CC(=O)Nc2cccnc2)c2ccc(F)cc2)cc1 [CBK268445] | 120.453 | – |
| O=c1[nH]c(=S)[nH]c2c1CCC2 [CBK113252] | 127.059 | – |
| CCS(=O)(=O)N1CCN(S(=O)(=O)c2ccccc2[N+](=O)[O-])CC1 [CBK264289] | 137.16 | – |
| Cc1cc(NS(=O)(=O)c2cccc3cccnc23)n(C)n1 [CBK067242] | 107.849 | – |
| O=C1CC(c2ccccc2O)CC2=C1C=Nc1ccccc1N2 (stereo not shown) [CBK270287] | 126.312 | – |
| CN1CCC2(CC1)OCc1cc(-c3cccnc3)ccc1O2 [CBK061020] | 97.9207 | – |
| O=C1NC2(CCCCC2)C(=O)N1c1ccc(F)cc1F [CBK281945] | 119.329 | – |
| CS(=O)(=O)N1CCN(c2ccc(NC(=O)COc3ccc4ccccc4c3)cc2)CC1 [CBK266450] | 144.968 | – |
| O=C(CCCOc1ccc(Cl)cc1Cl)Nc1ccc(O)cc1C(=O)O [CBK131688] | 133.072 | – |
| Oc1ccc(-c2cncc(Nc3ccc(Br)c(Cl)c3)n2)cc1 [CBK107806] | 84.1175 | – |
| O=C(CN1C(=O)c2ccccc2C1=O)Nc1cccc(-c2cnc3ccccc3n2)c1 [CBK268614] | 70.1217 | – |
| COc1cccc(CC(=O)N2[C@H](Cc3ccccc3)C[C@@H]3NCCCCC[C@H]32)c1 [CBK286030] | 123.654 | – |
| O=C(NCCN1CCCC1)c1ccc(Nc2cncc(-c3ccc(O)cc3)n2)c(Cl)c1 [CBK122666] | 116.524 | – |
| COC(=O)c1ccccc1NC(=O)CNS(=O)(=O)c1c(C)cc(C)cc1C [CBK265974] | 103.788 | – |
| COc1cc(C(=O)Nc2nc(Cc3n[nH]c(=S)n3C)cs2)ccc1C [CBK296683] | 146.22 | – |
| Cc1nc2c(c(N3CCN(c4ccc(O)cc4)CC3)n1)CN(Cc1ccccc1)CC2 [CBK286177] | 149.875 | – |
| CCOC(=O)N1CCN(C2CCCN(Cc3c(C)nn(C)c3Cl)C2)CC1 (stereo not shown) [CBK306853] | 107.223 | – |
| Oc1ccc(/C=N/Nc2nnn[nH]2)c(O)c1 [CBK260972] | 100 | – |
| O=C(CCCc1ccccc1)Nc1scc2c(=O)oc3ccccc3c12 [CBK265435] | 100 | – |
| Cc1cc(C)c2c(N)nc(N)nc2n1 [CBK025968] | 113.378 | – |

Retrieved by structure from the list above (5):

| SMILES | % of control remaining [%] | % of control remaining (Bulk GFP fluorescence) [%] |
| --- | --- | --- |
| Cc1ccc(-c2nccnc2OCc2ccco2)cc1C [CBK106863] | 249.952 | – |
| Oc1ccc(-c2cncc(Nc3ccc(Br)c(Cl)c3)n2)cc1 [CBK107806] | 84.1175 | – |
| O=[N+]([O-])c1ccc(OC(CNS(=O)(=O)c2ccc(Cl)cc2)c2ccccc2)cc1 (stereo not shown) [CBK262817] | 79.924 | – |
| CCCCN1CCN(S(=O)(=O)c2ccc(Br)cc2)CC1 [CBK144055] | 110.392 | – |
| CCOc1cc2c(cc1NC(=O)CN(c1cccc(Cl)c1)S(C)(=O)=O)OC(C)C2 (stereo not shown) [CBK248179] | 147.183 | – |
